The data set concerns the target MdERF5L (Malus domestica) (UniProt A0A498JN73). Nature of the data set: EMSA. Conditions: increasing MdWRKY9 (interacts with MdERF5L); LightShift Chemiluminescent EMSA kit (Thermo), per manufacturer's protocol; pH and temperature not stated; recombinant protein; protein details: GST (pGEX-4T-1); label: biotin (hot probe). On the technique in general: Mobility shift assays separate free from complexed probe on a gel.

Protein sequences, listed by entry. Tags and fused reporters are not part of them.
UniProt A0A498JN73, entry or part of it: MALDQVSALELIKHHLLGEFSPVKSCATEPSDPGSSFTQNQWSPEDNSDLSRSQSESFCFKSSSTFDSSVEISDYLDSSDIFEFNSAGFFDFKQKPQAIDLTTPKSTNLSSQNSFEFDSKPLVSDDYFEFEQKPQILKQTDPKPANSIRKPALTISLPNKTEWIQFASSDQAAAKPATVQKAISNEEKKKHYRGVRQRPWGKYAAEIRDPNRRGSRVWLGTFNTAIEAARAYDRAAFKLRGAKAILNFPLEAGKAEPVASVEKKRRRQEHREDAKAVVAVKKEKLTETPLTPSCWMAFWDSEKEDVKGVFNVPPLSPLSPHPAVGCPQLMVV

The exact form of at least one protein or probe is not confirmed. The comparison behind a weaker result is the experiment's own reference, which may not be listed here.

With “AAAATAGAGGAGAAAAATGGCCGACAAAATTTGTTGTGGCTACTA (double strand) [MdACS1-DRE probe]”, the binding result is given as “binds more weakly”.

The values above are taken from publication PMC12554370.
